Experimental data from paper PMC9723594.
No constants are given. Whether binding was seen depends on the method and setting. Binding seen in cells or lysates may run through a third protein. Some results given as binding are weak or reduced against the parent protein; the word gives no strength.

Amino acid sequences for entries named in this document (tags omitted).
UniProt O55170: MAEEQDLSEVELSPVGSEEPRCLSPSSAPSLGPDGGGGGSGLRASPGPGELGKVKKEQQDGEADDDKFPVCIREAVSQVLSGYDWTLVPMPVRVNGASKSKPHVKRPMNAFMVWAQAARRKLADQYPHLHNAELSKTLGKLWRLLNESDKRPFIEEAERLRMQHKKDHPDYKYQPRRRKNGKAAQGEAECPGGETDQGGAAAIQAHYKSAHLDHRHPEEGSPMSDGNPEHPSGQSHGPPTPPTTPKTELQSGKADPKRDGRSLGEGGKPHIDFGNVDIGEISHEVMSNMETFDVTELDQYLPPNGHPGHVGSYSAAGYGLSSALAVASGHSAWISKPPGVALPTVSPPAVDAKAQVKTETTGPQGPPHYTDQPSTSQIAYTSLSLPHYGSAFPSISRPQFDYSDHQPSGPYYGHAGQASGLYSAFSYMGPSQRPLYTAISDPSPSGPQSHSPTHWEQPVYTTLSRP
UniProt Q9JJZ6: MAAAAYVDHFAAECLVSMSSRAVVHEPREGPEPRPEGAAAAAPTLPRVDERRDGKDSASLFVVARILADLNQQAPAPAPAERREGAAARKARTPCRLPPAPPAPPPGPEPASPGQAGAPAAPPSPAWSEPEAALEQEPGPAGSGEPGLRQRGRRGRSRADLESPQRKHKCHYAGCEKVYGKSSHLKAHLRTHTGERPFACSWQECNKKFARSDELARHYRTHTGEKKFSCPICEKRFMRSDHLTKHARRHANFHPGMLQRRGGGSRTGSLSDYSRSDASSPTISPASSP
UniProt O35739: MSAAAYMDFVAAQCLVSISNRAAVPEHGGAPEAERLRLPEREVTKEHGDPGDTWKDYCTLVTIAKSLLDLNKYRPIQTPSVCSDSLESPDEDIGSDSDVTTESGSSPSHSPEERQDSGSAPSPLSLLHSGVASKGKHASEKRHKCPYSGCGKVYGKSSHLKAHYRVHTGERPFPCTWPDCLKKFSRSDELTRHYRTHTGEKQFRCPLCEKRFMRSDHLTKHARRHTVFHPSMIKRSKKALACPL
UniProt Q04888: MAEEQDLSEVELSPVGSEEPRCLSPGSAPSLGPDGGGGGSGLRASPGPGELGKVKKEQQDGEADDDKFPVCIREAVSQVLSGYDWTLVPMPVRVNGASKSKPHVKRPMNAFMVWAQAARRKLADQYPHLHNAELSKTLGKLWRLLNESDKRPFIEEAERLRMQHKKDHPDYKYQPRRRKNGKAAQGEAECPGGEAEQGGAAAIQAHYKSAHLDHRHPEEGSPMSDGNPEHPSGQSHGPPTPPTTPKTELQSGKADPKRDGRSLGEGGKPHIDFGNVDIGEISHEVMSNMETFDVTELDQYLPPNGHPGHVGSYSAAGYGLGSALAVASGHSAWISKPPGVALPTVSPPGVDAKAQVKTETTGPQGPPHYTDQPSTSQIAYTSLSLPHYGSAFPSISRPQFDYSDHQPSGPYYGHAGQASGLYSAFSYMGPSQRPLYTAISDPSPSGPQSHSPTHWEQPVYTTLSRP

Columns and labels:
SOX10 = SOX10 (UniProt O55170); assay: co-IP; extracts of HEK293 cells transfected with one protein, the other or both; precipitation with rabbit antisera (anti-SOX10, anti-KLF13, anti-KLF9) or anti-myc-tag monoclonals coupled to protein A sepharose beads; Western blot
[1] = biological target: KLF13 (Krüppel-like factor 13) (mouse) (UniProt Q9JJZ6); assay: as above
[2] = biological target: myc-tagged KLF9 (Krüppel-like factor 9) (mouse) (UniProt O35739); assay: as above
[3] = biological target: KLF13, endogenous in primary oligodendroglial cells (not stated (endogenous in primary oligodendroglial cells, mouse or rat)) (UniProt Q9JJZ6); assay: co-IP; endogenous proteins in extracts of primary oligodendroglial cells kept for 3 days or more under differentiating conditions; antisera against KLF9 or KLF13, pre-immune sera as control; Western blot for SOX10
[4] = biological target: KLF9, endogenous in primary oligodendroglial cells (not stated (endogenous in primary oligodendroglial cells, mouse or rat)) (UniProt O35739); assay: as above

KLF13 (Krüppel-like factor 13) (from UniProt Q9JJZ6 1-289)
binding (SOX10): binds

SOX10 (from UniProt O55170 1-466)
binding [1]: binds | binding [2]: binds

SOX10, endogenous in primary oligodendroglial cells (from UniProt Q04888 1-466)
binding [3]: binds | binding [4]: binds

myc-tagged KLF9 (Krüppel-like factor 9) (from UniProt O35739 1-244)
binding (SOX10): binds
